According to paper PMC9931222:
Results are given in words; binding and its absence hold for the method and conditions named. For some of these results: Binding seen in cells or lysates may run through a third protein. Some entries that bind do so weakly or less than the wild type. For some of these results: Tags and fused reporters may be left off the sequences shown.

By UniProt entry, the sequences of proteins in these tests, tags left out.
UniProt P46940: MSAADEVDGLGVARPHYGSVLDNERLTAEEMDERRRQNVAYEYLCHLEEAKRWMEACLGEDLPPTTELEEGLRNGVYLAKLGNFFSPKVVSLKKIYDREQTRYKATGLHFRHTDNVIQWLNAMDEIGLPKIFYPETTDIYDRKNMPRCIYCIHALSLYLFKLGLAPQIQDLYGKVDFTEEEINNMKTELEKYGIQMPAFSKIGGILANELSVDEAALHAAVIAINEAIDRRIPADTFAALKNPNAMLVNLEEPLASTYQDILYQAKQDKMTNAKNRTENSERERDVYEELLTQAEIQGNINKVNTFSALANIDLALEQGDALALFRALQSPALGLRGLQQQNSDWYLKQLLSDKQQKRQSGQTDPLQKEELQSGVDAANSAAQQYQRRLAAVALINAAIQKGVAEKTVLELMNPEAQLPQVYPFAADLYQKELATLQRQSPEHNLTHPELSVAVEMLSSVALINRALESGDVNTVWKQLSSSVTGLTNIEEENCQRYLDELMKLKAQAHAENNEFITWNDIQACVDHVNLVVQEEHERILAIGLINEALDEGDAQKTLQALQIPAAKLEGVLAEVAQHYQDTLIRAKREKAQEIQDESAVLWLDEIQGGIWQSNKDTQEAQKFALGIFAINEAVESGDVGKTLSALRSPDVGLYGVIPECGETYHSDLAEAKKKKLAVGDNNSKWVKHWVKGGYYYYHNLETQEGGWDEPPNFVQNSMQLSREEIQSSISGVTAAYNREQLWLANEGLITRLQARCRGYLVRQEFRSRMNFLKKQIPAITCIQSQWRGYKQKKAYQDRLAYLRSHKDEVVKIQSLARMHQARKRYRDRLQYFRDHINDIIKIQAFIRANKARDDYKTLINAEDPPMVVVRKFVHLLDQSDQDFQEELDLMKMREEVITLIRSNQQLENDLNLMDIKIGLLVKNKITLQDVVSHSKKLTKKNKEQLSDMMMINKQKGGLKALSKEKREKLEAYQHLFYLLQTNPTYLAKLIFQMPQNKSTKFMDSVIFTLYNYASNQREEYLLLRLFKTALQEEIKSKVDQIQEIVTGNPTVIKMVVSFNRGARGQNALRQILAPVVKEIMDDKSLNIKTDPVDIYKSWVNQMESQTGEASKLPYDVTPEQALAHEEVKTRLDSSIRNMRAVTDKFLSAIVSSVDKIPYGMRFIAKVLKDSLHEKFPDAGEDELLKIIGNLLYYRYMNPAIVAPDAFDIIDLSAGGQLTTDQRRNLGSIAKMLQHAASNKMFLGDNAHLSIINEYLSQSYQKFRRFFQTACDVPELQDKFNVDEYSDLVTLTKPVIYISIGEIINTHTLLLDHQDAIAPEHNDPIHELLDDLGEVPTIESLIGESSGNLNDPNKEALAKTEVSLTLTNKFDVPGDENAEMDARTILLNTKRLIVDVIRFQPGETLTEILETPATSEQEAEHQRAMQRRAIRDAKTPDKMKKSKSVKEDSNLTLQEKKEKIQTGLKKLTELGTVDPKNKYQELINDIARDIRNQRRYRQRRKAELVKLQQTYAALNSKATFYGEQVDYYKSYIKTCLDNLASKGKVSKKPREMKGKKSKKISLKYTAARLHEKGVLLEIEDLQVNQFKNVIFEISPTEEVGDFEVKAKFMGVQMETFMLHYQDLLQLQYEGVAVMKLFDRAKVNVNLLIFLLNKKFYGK
UniProt P15056: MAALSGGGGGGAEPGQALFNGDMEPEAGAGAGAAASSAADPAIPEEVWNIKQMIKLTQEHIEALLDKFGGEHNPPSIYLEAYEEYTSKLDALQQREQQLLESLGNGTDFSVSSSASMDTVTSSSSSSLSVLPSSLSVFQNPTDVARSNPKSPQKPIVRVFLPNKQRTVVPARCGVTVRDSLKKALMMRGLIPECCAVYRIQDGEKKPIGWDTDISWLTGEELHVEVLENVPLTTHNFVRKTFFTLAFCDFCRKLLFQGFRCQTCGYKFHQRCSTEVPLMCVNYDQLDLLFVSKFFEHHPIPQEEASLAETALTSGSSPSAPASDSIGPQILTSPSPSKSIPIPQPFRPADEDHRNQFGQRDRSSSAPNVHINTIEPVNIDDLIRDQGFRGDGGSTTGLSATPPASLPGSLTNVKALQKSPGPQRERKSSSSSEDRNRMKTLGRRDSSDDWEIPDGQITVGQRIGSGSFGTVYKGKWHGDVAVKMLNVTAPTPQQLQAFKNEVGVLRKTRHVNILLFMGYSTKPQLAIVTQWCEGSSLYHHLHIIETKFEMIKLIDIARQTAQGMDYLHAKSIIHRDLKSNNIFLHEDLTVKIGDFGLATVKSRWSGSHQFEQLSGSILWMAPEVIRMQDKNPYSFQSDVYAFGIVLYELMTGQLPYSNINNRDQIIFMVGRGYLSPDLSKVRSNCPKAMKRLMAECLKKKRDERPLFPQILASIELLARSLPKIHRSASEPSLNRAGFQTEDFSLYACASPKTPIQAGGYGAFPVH

Columns and labels:
[1] = target: T1, Flag-tagged wild-type KSR1 (kinase suppressor of Ras 1) (UniProt Q61097); test: co-IP; HEK293T transfected with Flag-tagged KSR1 constructs (1.5 μg); starved 18 h, EGF 50 ng/ml 5 min or co-transfected HRAS^V12 (APS-2-79 in Fig. 8B); anti-Flag immunoprecipitation, Western blot of associated cellular proteins; no IQGAP1 overexpressed
T1 sequence: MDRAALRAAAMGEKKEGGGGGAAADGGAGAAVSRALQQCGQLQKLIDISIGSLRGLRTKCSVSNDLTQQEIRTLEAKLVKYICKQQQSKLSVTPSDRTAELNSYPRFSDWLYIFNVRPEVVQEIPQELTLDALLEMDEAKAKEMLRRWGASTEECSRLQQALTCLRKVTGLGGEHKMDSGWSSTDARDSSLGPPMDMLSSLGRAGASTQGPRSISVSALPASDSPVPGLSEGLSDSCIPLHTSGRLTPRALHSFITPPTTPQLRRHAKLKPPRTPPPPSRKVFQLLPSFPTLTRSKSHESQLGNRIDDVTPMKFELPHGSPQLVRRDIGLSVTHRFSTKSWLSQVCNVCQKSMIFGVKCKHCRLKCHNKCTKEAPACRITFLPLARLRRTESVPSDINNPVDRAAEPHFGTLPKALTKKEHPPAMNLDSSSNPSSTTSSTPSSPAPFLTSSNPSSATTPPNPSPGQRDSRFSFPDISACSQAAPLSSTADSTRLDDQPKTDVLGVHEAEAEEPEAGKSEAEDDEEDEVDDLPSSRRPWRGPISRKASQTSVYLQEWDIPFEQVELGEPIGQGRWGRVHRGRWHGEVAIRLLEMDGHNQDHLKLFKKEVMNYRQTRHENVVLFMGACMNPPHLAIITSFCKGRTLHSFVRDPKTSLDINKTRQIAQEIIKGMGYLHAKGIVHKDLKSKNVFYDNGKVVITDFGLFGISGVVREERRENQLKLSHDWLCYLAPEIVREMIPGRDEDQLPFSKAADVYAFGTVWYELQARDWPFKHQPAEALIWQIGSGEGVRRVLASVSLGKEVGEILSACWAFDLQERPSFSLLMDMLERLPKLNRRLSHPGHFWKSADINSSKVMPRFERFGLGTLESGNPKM

[2] = target: T1, Flag-tagged wild-type KSR1 (kinase suppressor of Ras 1); test: co-IP; HEK293T transfected with Myc-tagged IQGAP1 constructs and Flag-tagged KSR1 constructs (1.5 μg); starved 18 h, EGF 50 ng/ml 5 min; anti-Flag immunoprecipitation, anti-Myc immunoblotting
[3] = target: T2, Flag-tagged KSR1 construct 1 to 521 (UniProt Q61097); test: as above
T2 sequence: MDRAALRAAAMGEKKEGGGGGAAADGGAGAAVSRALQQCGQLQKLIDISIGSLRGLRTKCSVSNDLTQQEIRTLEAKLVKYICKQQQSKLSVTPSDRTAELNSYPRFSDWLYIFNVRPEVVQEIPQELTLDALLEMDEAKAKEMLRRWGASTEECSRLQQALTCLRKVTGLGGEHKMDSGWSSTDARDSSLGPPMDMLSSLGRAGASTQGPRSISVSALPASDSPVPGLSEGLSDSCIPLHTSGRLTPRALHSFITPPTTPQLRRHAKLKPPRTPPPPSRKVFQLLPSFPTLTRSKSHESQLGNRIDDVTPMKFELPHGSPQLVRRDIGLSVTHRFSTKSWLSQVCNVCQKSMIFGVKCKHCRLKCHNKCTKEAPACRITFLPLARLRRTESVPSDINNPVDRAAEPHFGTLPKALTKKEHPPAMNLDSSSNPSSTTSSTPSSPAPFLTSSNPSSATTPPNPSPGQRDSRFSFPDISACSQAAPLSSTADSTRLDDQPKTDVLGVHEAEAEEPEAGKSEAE

[4] = target: T1, Flag-tagged wild-type KSR1 (kinase suppressor of Ras 1); test: proximity ligation; transfected HeLa cells, fixed and permeabilised; starved or EGF-treated
GST-KSR1 301-600 = target: T3, GST-KSR1 301-600 (UniProt Q61097); test: pull-down; beads coated with purified GST-KSR1 301-600 incubated with total lysates of HEK293T cells (starved or EGF-stimulated) lysed in MLB buffer; immunoblotting; only the target purified
T3 sequence: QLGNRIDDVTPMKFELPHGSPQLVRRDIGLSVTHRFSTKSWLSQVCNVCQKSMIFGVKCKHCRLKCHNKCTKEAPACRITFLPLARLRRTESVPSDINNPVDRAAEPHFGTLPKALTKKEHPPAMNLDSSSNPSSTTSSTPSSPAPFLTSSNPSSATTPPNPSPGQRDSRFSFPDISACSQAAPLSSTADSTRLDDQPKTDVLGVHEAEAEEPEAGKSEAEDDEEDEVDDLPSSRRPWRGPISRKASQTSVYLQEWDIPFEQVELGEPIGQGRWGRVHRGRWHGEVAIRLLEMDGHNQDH

Flag-tagged KSR1 C809Y = target: T4, Flag-tagged KSR1 C809Y (UniProt Q61097); test: co-IP; HEK293T transfected with Flag-tagged KSR1 constructs (1.5 μg); starved 18 h, EGF 50 ng/ml 5 min or co-transfected HRAS^V12 (APS-2-79 in Fig. 8B); anti-Flag immunoprecipitation, Western blot of associated cellular proteins; no IQGAP1 overexpressed
T4 sequence: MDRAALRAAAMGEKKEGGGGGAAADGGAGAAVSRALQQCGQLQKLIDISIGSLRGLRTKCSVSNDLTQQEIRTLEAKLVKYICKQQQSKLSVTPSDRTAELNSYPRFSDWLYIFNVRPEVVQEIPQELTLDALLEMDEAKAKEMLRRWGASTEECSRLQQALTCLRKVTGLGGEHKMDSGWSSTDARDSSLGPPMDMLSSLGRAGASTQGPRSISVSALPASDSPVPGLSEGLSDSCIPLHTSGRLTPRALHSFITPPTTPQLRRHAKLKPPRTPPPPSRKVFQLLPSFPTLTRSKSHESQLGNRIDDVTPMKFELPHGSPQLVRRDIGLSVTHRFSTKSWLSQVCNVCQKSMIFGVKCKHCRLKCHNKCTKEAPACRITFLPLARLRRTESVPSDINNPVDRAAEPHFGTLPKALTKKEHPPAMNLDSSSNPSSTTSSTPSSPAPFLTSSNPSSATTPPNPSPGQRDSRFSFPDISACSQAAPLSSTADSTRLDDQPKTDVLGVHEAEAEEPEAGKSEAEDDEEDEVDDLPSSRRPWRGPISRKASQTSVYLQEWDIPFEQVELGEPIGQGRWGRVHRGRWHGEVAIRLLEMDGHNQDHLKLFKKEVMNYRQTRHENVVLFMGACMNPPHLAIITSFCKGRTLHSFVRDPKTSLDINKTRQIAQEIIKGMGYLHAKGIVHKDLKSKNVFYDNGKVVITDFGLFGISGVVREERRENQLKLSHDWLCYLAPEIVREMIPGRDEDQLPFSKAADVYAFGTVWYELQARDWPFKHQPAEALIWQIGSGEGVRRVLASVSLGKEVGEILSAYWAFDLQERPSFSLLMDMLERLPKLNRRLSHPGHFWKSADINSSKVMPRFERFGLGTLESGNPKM

GST-IQGAP1 = GST-IQGAP1 (UniProt P46940); test: pull-down; beads coated with GST-IQGAP1 incubated with purified His-KSR1 for 2 hours with rocking at 4°C; washes with PBS, PBS 1% NP-40 and MLB buffer; both purified
[5] = target: endogenous IQGAP1 (human cell lines) (human (endogenous in HEK293T, Cal62, Hth83)) (UniProt P46940); test: co-IP; endogenous proteins in proliferating Cal62 and Hth83 tumor cell lines; anti-IQGAP1 immunoprecipitation
[6] = target: endogenous IQGAP1 (human cell lines) (human (endogenous in HEK293T, Cal62, Hth83)) (UniProt P46940); test: co-IP; endogenous IQGAP1 or KSR1 immunoprecipitated from HEK293T, starved 18 h or EGF-stimulated (APS-2-79 in Fig. 8C); the other scaffold detected by Western blot; preimmune serum as control

Molecule: BRAF (V-RAF murine sarcoma viral oncogene homologue B) (from UniProt P15056 1-766)
- binding [1]: binds

Molecule: Myc-tagged IQGAP1 (IQ motif-containing guanosine triphosphatase activating protein 1), wild type (from UniProt P46940 1-1657)
- binding [2]: binds
- binding [3]: binds
- binding [4]: binds

Molecule: endogenous IQGAP1 (human cell lines) (from UniProt P46940 1-1657)
- binding (GST-KSR1 301-600): binds
- binding [1]: binds
- binding (Flag-tagged KSR1 C809Y): binds

B1: His-KSR1, bacterially expressed, purified, full-length KSR1 (protein, UniProt Q61097 1-873)
chain: MDRAALRAAAMGEKKEGGGGGAAADGGAGAAVSRALQQCGQLQKLIDISIGSLRGLRTKCSVSNDLTQQEIRTLEAKLVKYICKQQQSKLSVTPSDRTAELNSYPRFSDWLYIFNVRPEVVQEIPQELTLDALLEMDEAKAKEMLRRWGASTEECSRLQQALTCLRKVTGLGGEHKMDSGWSSTDARDSSLGPPMDMLSSLGRAGASTQGPRSISVSALPASDSPVPGLSEGLSDSCIPLHTSGRLTPRALHSFITPPTTPQLRRHAKLKPPRTPPPPSRKVFQLLPSFPTLTRSKSHESQLGNRIDDVTPMKFELPHGSPQLVRRDIGLSVTHRFSTKSWLSQVCNVCQKSMIFGVKCKHCRLKCHNKCTKEAPACRITFLPLARLRRTESVPSDINNPVDRAAEPHFGTLPKALTKKEHPPAMNLDSSSNPSSTTSSTPSSPAPFLTSSNPSSATTPPNPSPGQRDSRFSFPDISACSQAAPLSSTADSTRLDDQPKTDVLGVHEAEAEEPEAGKSEAEDDEEDEVDDLPSSRRPWRGPISRKASQTSVYLQEWDIPFEQVELGEPIGQGRWGRVHRGRWHGEVAIRLLEMDGHNQDHLKLFKKEVMNYRQTRHENVVLFMGACMNPPHLAIITSFCKGRTLHSFVRDPKTSLDINKTRQIAQEIIKGMGYLHAKGIVHKDLKSKNVFYDNGKVVITDFGLFGISGVVREERRENQLKLSHDWLCYLAPEIVREMIPGRDEDQLPFSKAADVYAFGTVWYELQARDWPFKHQPAEALIWQIGSGEGVRRVLASVSLGKEVGEILSACWAFDLQERPSFSLLMDMLERLPKLNRRLSHPGHFWKSADINSSKVMPRFERFGLGTLESGNPKM
- binding (GST-IQGAP1): binds

B2: endogenous KSR1 (human cell lines) (protein, UniProt Q8IVT5 1-923)
chain: MDRAALRAAAMGEKKEGGGGGDAAAAEGGAGAAASRALQQCGQLQKLIDISIGSLRGLRTKCAVSNDLTQQEIRTLEAKLVRYICKQRQCKLSVAPGERTPELNSYPRFSDWLYTFNVRPEVVQEIPRDLTLDALLEMNEAKVKETLRRCGASGDECGRLQYALTCLRKVTGLGGEHKEDSSWSSLDARRESGSGPSTDTLSAASLPWPPGSSQLGRAGNSAQGPRSISVSALPASDSPTPSFSEGLSDTCIPLHASGRLTPRALHSFITPPTTPQLRRHTKLKPPRTPPPPSRKVFQLLPSFPTLTRSKSHESQLGNRIDDVSSMRFDLSHGSPQMVRRDIGLSVTHRFSTKSWLSQVCHVCQKSMIFGVKCKHCRLKCHNKCTKEAPACRISFLPLTRLRRTESVPSDINNPVDRAAEPHFGTLPKALTKKEHPPAMNHLDSSSNPSSTTSSTPSSPAPFPTSSNPSSATTPPNPSPGQRDSRFNFPAAYFIHHRQQFIFPVPSAGHCWKCLLIAESLKENAFNISAFAHAAPLPEAADGTRLDDQPKADVLEAHEAEAEEPEAGKSEAEDDEDEVDDLPSSRRPWRGPISRKASQTSVYLQEWDIPFEQVELGEPIGQGRWGRVHRGRWHGEVAIRLLEMDGHNQDHLKLFKKEVMNYRQTRHENVVLFMGACMNPPHLAIITSFCKGRTLHSFVRDPKTSLDINKTRQIAQEIIKGMGYLHAKGIVHKDLKSKNVFYDNGKVVITDFGLFGISGVVREGRRENQLKLSHDWLCYLAPEIVREMTPGKDEDQLPFSKAADVYAFGTVWYELQARDWPLKNQAAEASIWQIGSGEGMKRVLTSVSLGKEVSEILSACWAFDLQERPSFSLLMDMLEKLPKLNRRLSHPGHFWKSADINSSKVVPRFERFGLGVLESSNPKM
- binding [5]: binds
- binding [6]: binds
